Data reported in publication PMC9271913.
Results are given in words; binding and its absence hold for the method and conditions named. Binding seen in cells or lysates may run through a third protein. These calls come from enrichment with a bait or labelling near it, and not all partners need be listed.

By UniProt entry, the sequences of proteins in these tests, tags left out. Where a name states a change or a piece, a line headed by the entry shows the natural chain unless it says otherwise. Residues count along the entry.
UniProt P61202: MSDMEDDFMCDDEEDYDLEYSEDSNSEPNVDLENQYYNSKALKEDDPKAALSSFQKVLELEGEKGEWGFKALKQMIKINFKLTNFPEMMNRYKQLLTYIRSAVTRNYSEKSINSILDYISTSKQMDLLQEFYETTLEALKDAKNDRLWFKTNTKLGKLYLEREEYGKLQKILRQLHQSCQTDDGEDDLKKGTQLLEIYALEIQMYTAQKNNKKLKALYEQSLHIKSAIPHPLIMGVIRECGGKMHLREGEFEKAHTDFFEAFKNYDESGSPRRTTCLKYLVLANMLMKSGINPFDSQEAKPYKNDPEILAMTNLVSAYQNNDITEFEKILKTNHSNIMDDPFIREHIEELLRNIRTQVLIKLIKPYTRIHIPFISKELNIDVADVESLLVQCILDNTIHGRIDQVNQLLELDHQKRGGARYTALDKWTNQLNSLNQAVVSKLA
UniProt P80316: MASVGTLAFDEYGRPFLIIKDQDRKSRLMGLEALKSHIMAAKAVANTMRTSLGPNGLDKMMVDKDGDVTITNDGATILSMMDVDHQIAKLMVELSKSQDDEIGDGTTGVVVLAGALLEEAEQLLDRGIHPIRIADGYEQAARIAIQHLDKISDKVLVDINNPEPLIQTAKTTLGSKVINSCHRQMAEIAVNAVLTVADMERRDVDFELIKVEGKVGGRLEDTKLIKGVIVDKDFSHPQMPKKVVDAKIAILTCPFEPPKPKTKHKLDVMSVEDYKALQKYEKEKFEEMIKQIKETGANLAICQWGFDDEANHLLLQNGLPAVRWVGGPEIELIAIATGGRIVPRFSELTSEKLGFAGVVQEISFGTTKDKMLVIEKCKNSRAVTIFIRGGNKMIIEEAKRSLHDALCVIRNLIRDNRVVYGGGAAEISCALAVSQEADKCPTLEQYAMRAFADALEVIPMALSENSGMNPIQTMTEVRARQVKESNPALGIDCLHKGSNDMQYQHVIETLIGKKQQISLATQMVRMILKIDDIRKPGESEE
UniProt P27773, residues 25-505: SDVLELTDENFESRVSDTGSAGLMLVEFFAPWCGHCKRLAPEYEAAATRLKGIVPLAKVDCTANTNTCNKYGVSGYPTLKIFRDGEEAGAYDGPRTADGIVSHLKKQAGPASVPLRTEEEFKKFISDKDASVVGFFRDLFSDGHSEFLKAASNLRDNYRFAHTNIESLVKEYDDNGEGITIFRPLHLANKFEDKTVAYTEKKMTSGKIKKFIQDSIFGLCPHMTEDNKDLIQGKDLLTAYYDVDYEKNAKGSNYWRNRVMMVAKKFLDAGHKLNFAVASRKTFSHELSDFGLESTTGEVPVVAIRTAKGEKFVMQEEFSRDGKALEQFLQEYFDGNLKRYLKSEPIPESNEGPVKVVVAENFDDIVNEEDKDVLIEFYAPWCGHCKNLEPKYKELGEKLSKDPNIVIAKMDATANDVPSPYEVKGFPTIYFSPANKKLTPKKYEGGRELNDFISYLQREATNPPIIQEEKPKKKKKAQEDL
UniProt Q8BUN9: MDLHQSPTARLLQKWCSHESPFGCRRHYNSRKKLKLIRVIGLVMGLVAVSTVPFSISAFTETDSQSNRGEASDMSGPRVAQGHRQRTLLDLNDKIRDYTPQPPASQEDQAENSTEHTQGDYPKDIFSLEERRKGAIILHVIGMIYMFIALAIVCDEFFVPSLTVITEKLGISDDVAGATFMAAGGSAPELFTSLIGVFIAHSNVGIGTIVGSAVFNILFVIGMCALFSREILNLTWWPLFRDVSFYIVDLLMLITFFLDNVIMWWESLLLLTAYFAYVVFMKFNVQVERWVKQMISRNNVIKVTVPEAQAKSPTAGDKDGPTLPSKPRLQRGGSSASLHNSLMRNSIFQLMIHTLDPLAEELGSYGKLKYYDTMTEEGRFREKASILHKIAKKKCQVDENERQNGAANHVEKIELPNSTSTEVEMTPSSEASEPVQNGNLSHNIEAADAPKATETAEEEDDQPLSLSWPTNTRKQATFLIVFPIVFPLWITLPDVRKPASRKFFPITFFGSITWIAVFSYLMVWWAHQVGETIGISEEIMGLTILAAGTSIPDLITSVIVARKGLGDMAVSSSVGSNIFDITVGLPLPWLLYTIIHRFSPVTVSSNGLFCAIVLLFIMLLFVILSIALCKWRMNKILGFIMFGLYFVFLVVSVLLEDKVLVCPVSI
UniProt P38647, residues 47-679: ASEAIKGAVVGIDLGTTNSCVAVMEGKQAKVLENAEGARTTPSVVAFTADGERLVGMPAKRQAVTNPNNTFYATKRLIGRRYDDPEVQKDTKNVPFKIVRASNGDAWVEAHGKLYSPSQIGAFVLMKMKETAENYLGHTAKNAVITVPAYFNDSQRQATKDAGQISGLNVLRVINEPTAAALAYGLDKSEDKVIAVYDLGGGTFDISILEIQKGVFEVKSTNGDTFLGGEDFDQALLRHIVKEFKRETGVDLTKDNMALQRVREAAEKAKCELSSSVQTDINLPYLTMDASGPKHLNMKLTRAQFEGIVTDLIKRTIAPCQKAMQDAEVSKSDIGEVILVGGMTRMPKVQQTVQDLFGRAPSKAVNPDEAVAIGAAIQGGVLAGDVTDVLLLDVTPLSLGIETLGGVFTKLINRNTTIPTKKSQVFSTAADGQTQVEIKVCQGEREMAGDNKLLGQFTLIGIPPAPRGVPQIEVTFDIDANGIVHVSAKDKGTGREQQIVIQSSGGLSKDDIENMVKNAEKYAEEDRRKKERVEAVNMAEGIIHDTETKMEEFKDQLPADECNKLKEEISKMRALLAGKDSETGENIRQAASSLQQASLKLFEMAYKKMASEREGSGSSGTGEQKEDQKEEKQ
UniProt Q8BMS1, residues 37-763: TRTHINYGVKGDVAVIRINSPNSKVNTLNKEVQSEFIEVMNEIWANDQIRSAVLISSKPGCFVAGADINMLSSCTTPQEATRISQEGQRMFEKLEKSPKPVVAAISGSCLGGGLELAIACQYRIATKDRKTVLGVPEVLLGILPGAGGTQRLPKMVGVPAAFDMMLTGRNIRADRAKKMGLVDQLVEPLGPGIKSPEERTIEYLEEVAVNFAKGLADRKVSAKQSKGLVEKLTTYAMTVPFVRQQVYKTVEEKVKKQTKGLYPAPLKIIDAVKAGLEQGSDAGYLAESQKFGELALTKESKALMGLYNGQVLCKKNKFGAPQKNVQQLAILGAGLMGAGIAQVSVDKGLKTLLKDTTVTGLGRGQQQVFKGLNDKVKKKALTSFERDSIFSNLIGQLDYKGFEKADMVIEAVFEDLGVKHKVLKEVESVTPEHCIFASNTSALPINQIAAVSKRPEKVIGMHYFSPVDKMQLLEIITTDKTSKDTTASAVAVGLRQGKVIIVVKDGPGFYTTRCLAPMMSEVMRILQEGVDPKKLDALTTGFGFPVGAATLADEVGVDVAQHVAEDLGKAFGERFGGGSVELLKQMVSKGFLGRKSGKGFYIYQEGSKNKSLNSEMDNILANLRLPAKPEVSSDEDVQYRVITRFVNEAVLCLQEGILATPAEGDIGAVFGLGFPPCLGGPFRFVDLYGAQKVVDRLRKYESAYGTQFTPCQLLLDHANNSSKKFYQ
UniProt Q8BNW9: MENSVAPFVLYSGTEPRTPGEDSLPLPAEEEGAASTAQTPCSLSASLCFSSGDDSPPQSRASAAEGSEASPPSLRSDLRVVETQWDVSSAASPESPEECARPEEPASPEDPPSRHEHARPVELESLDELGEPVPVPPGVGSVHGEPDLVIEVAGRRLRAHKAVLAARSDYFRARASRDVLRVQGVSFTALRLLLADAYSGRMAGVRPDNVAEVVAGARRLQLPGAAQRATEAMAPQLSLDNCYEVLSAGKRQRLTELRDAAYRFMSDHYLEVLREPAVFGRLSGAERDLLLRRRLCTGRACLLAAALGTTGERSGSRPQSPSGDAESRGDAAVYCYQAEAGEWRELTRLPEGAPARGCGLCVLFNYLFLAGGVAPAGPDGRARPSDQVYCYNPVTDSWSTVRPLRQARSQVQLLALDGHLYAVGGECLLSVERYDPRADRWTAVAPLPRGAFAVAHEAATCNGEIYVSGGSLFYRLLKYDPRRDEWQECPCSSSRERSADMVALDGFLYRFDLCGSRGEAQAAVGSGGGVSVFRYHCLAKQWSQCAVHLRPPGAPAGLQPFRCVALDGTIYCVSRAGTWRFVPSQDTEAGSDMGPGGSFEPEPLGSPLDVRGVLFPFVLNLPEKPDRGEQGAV
UniProt Q80TL4: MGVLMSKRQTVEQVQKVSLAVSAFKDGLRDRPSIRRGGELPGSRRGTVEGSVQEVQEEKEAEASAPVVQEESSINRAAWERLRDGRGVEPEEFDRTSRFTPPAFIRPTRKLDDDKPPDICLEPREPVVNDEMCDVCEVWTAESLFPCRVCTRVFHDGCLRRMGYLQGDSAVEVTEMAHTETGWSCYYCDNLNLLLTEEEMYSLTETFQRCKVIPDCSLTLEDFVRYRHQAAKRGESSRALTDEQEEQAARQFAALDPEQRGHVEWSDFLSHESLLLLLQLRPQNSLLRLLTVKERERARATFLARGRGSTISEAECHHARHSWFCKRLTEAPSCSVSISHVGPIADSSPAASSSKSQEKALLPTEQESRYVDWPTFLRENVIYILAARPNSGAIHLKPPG
UniProt P27546: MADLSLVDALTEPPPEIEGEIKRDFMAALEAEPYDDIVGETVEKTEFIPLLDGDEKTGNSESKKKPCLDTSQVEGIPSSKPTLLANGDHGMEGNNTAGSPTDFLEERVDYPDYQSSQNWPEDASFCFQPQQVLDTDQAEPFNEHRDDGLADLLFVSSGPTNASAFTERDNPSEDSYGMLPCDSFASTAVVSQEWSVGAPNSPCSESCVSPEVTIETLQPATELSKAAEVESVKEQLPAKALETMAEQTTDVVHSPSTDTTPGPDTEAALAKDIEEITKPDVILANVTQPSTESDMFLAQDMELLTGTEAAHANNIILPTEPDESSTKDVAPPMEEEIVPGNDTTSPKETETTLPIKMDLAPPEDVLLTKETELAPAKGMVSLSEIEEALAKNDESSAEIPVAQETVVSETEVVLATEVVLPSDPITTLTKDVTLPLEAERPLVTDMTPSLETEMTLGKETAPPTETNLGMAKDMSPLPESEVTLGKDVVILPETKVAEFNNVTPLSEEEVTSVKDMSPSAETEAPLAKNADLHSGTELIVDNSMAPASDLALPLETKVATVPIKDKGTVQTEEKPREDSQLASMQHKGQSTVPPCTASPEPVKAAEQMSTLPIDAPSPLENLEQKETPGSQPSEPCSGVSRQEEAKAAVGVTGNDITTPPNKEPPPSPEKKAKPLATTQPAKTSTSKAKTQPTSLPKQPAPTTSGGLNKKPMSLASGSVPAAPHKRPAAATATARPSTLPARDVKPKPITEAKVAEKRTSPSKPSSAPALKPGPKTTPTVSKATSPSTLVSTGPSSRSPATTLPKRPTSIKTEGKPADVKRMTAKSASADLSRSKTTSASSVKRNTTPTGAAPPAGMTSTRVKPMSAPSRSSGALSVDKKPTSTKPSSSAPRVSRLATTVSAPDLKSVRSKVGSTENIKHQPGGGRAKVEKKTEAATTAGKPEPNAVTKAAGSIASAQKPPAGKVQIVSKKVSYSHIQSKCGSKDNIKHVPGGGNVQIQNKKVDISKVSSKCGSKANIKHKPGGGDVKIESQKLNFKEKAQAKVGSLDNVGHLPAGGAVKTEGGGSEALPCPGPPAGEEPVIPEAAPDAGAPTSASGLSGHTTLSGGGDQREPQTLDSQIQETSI
UniProt P80317: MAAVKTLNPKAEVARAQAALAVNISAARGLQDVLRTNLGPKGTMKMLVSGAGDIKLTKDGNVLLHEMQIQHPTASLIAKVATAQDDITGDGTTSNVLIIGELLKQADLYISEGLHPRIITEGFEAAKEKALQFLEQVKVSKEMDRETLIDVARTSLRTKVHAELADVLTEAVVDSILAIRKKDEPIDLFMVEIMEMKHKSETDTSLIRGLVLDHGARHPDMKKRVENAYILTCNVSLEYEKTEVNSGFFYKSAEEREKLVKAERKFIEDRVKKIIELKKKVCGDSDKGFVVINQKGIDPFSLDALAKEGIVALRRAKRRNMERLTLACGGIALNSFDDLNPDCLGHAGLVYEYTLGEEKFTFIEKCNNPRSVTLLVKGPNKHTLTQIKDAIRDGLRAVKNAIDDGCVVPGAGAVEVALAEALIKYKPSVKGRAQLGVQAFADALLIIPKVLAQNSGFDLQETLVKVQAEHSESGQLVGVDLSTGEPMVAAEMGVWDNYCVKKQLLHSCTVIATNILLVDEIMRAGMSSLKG
UniProt P10605: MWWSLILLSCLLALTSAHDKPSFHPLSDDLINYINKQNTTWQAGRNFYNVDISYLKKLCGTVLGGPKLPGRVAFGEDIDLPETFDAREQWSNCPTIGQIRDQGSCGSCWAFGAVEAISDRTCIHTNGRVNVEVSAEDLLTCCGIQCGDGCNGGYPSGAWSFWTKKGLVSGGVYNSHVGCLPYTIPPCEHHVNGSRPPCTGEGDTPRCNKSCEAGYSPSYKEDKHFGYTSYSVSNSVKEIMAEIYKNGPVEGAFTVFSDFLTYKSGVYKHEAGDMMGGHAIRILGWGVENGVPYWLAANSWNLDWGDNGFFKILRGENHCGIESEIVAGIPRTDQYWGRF

B1: Enoyl-CoA hydratase, mitochondrial isoform X2 (protein, UniProt Q8BH95 28-290)
chain: ASGANFQYIITEKKGKNSSVGLIQLNRPKALNALCNGLIEELNQALETFEQDPAVGAIVLTGGDKAFAAGADIKEMQNRTFQDCYSSKFLSHWDHITRVKKPVIAAVNGYALGGGCELAMMCDIIYAGEKAQFGQPEILLGTIPGAGGTQRLTRAVGKSLAMEMVLTGDRISAQDAKQAGLVSKIFPVEKLVEEAIQCAEKIASNSKIVVAMAKESVNAAFEMTLTEGNKLEKRLFYSTFATDDRREGMTAFVEKRKANFKDH
B2: Ras GTPase-activating protein-binding protein 2 isoform X1 (protein, UniProt P97379 1-482)
chain: MVMEKPSPLLVGREFVRQYYTLLNKAPEYLHRFYGRNSSYVHGGVDASGKPQEAVYGQNDIHHKVLSLNFSECHTKIRHVDAHATLSDGVVVQVMGLLSNSGQPERKFMQTFVLAPEGSVPNKFYVHNDMFRYEDEVFGDSEPELDEESEDEVEEEQEDRQPSPEPVQENANSAYYDAHPVTNGIEEPLEESSHEPEPEPESETKTEELKPQVEEKHLEELEEKSATPPPAEPASLPQEPPKAFSWASVTSKNLPPSGTVSSSGIPPHVKAPVSQPRVDAKPEVQSQPPRVREQRPRERPGFPPRGPRPGRGDMEQNDSDNRRIIRYPDSHQLFVGNLPHDIDENELKEFFMSFGNVVELRINTKGVGGKLPNFGFVVFDDSEPVQRILIAKPIMFRGEVRLNVEEKKTRAARERETRGGGDDRRDIRRNDRGPGGPRGIVGGGMMRDRDGRGPPPRGGMTQKLGSGRGTGQMEGRFTGQRR
B3: Epidermal growth factor receptor substrate 15-like 1 (protein, UniProt Q60902 1-907)
chain: MAAPLVPLSQQIPGGNPLYESYYKQVDPAYTGRVGASEAALFLKKSGLSDIILGKIWDLADPEGKGFLDKQGFYVALRLVACAQSGHEVTLSSLSLTMPPPKFHDTSSPLMATQSSAETHWAVRVEEKAKFDGIFESLLPVNGLLSGDKVKPVLMNSKLPLDVLGRVWDLSDIDKDGHLDRDEFAVAMHLVYRALEKEPVPSILPPPLIPPSKRKKTVFAGAVPVLPASPPPKDSLRSTPSHGSVSSLNSTGSLSPKHSVKQPPVAWVVPVADKMRFDEIFLKTDLDLDGYVSGQEVKEIFMHSGLTQNLLAHIWALADTRQTGKLSKEQFALAMYFIQQKVSKGIDPPQVLSPDMVPPSERGTPIPDSSSTLASGEFTGVKELDDISQEIAQLQREKYSLEQDIREKEEAIRQKTSEVQELQNDLDRETSSLQELEAQKQDAQDRLDEMDQQKAKLRDMLSDVRQKCQDETQTISSLKTQIQSQESDLKSQEDDLNRAKSELNRLQQEETQLEQSIQAGRAQLETILRSLKCTQDDINQARSKLSQLQESHLEAHRSLEQYDQVPDGVSGTSLPDLATLNEGILLAERGGFGAMDDPFKNKALLFSNNSQELHPDPFQAEDPFKSDPFKGADPFKGDPFQSDPFSEQQTAATDPFGGDPFKESDPFHSSSSDDFFKKQTKNDPFTSDPFTKNPSLPSKLDPFESSDPFSSSSISSKGSDPFGTLDPFGSSSFSSAEGFADFSQMSKPPPSGPFSSSLGGTGFSDDPFKSKQDTPALPPKKPAPPRPKPPSGQSTPVSQLGSSDFPESPDPFQPLGADSGDPFQNKKGFGDPFSGKDPFAPSSSAKPPKTSSSGFADFTSFGNEEQQLAWAKRESEKAEQERLARLRRQEQEDLELAIALSKADMPA
B4: Coatomer subunit beta, also known as the coat protein complex 1 (protein, UniProt Q9JIF7 1-953)
chain: MTAAENVCYTLINVPMDSEPPSEISLKNDLEKGDVKSKTEALKKVIIMILNGEKLPGLLMTIIRFVLPLQDHTIKKLLLVFWEIVPKTTPDGRLLHEMILVCDAYRKDLQHPNEFIRGSTLRFLCKLKEAELLEPLMPAIRACLEHRHSYVRRNAVLAIYTIYRNFEHLIPDAPELIHDFLVNEKDASCKRNAFMMLIHADQDRALDYLSTCIDQVQTFGDILQLVIVELIYKVCHANPSERARFIRCIYNLLQSSSPAVKYEAAGTLVTLSSAPTAIKAAAQCYIDLIIKESDNNVKLIVLDRLVELKEHPAHERVLQDLVMDILRVLSTPDLEVRKKTLQLALDLVSSRNVEELVIVLKKEVIKTNNVSEHEDTDKYRQLLVRTLHSCSVRFPDMAANVIPVLMEFLSDSNEAAAADVLEFVREAIQRFDNLRMLIVEKMLEVFHAIKSVKIYRGALWILGEYCSTKEDIQSVMTEVRRSLGEIPIVESEIKKEAGELKPEEEITVGPVQKLVTEMGTYATQSALSSSRPTKKEEDRPPLRGFLLDGDFFVAASLATTLTKIALRYVALVQEKKKQNSFVAEAMLLMATILHLGKSSLPKKPITDDDVDRISLCLKVLSECSPLMNDIFNKECRQSLSQMLSAKLEEEKLSQKKESEKRNVTVQPDDPISFMQLTAKNEMNCKEDQFQLSLLAAMGNTQRKEAADPLASKLNKVTQLTGFSDPVYAEAYVHVNQYDIVLDVLVVNQTSDTLQNCTLELATLGDLKLVEKPSPLTLAPHDFANIKANVKVASTENGIIFGNIVYDVSGAASDRNCVVLSDIHIDIMDYIQPATCTDAEFRQMWAEFEWENKVTVNTNMTDLNDYLQHILKSTNMKCLTPEKALSGYCGFMAANLYARSIFGEDALANVSIEKPVHQGPDAAVTGHIRIRAKSQGMALSLGDKINLSQKKTSL
B5: Complement C1q subcomponent subunit A (protein, UniProt P98086 23-245)
chain: EDVCRAPNGKDGAPGNPGRPGRPGLKGERGEPGAAGIRTGIRGFKGDPGESGPPGKPGNVGLPGPSGPLGDSGPQGLKGVKGNPGNIRDQPRPAFSAIRQNPMTLGNVVIFDKVLTNQESPYQNHTGRFICAVPGFYYFNFQVISKWDLCLFIKSSSGGQPRDSLSFSNTNNKGLFQVLAGGTVLQLRRGDEVWIEKDPAKGRIYQGTEADSIFSGFLIFPSA
B6: Long-chain specific acyl-CoA dehydrogenase, mitochondrial (protein, UniProt P51174 31-430)
chain: GAEARLETPSAKKLTDVGIRRIFSSEHDIFRESVRKFFQEEVIPHHTEWEKAGEVSREVWEKAGKQGLLGINIAEKHGGIGGDLLSTAVTWEEQAYSNCTGPGFSLHSDIVMPYIANYGTKEQIEKFIPQMTAGKCIGAIAMTEPGAGSDLQGVRTNAKRSGSDWILNGSKVFITNGWLSDLVIVVAVTNREARSPAHGISLFLVENGMKGFIKGRKLHKMGMKAQDTAELFFEDVRLPANALLGEENKGFYYLMQELPQERLLIAELAISACEFMFEETRNYVKQRKAFGKTVAHIQTVQHKLAELKTHICVTRAFVDSCLQLHETKRLDSGSASMAKYWASELQNSVAYECVQLHGGWGYMWEYPIAKAYVDARVQPIYGGTNEIMKELIARQIVSDS

These molecules were tested against T1, Retention in endoplasmic reticulum 1 (Rer1), mouse (mouse (endogenous in brain)) (UniProt Q9CQU3) (assay: affinity purification with mass spectrometry; anti-RER1 immunoprecipitation of hippocampus lysates (gentle RIPA lysis buffer) of PTZ-induced Nedd4-2+/- and wild-type mice, LC-MS/MS; IgG-precipitated proteins subtracted; proteins present in all four replicates of a group defined as positive).
T1 sequence: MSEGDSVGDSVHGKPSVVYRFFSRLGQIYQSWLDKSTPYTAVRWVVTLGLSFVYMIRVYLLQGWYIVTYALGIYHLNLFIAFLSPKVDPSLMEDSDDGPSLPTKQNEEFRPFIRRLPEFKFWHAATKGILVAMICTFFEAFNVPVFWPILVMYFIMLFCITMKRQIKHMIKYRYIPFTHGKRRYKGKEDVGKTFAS

binding, binds:
Serine/arginine repetitive matrix protein 2 (from UniProt Q8BTI8 1-2703)
Adenosylhomocysteinase (from UniProt Q80SW1 1-530)
COP9 signalosome complex subunit 2 (from UniProt P61202 1-443)
ATP synthase membrane subunit f (mouse (endogenous in hippocampus))
Neurobeachin (from UniProt Q9EPN1 1-2936)
26S proteasome non-ATPase regulatory subunit 5 (from UniProt Q8BJY1 1-504)
T-complex protein 1 subunit epsilon (from UniProt P80316 1-541)
Pdia3 (from UniProt P27773 25-505)
Sodium/potassium/calcium exchanger 2 isoform X4 (from UniProt Q8BUN9 1-666)
Hspa9 (from UniProt P38647 47-679)
RNA-binding protein EWS isoform X4 (from UniProt Q61545 1-655)
Kinesin-like protein KIF1A (from UniProt P33173 1-1695)
Serine/threonine-protein phosphatase 2A 65 kDa regulatory subunit A alpha isoform (from UniProt Q76MZ3 1-589)
Dnaja1 (from UniProt P63037 1-397)
Brevican core protein isoform X3 (from UniProt Q61361 23-883)
Myosin-10 (from UniProt Q61879 1-1976)
Trifunctional enzyme subunit alpha, mitochondrial (from UniProt Q8BMS1 37-763)
Kelch repeat and BTB domain-containing protein 11 (from UniProt Q8BNW9 1-633)
Synapsin I (from UniProt O88935 1-706)
PHD finger protein 24 isoform X1 (from UniProt Q80TL4 1-400)
C-terminal-binding protein 1 (from UniProt O88712 1-441)
Microtubule-associated protein (from UniProt P27546 1-1125)
Regulatory-associated protein of mTOR (from UniProt Q8K4Q0 1-1335)
T-complex protein 1 subunit zeta (from UniProt P80317 1-531)
Cathepsin B (from UniProt P10605)
B1
B2
B3
B4
B5
B6
